In patent US20220276262A1, “Methods and Products for Assessing Lysosomal System Flux” (SOUTH AUSTRALIAN HEALTH AND MEDICAL RESEARCH INSTITUTE …, priority 2019, published 2022):
At least one structure is not confirmed: it was looked up by name or label, or the drawing left a doubt.

Test system: LC3B-II in PBMCs
Assay: Autophagic flux in PBMCs by lysosomal inhibition in whole blood, LC3B western blot
Assay type: cell-based, human
Details: rapamycin or vehicle (DMSO) added to whole blood for the one-hour incubation at 37° C.
Description: Blood was collected in lithium heparin (Greiner Bio-One, vacuette tube 9 ml lithium heparin, 455084), or EDTA (Greiner Bio-One, vacuette tube 9 ml K3EDTA, 455036) blood collection tubes (6-9 ml). Unless otherwise stated, blood samples were split into two (2×3 ml) and pipetted into 10 ml conical centrifuge tubes. One of the blood samples was treated with a final concentration of 150 μM of chloroquine (CQ, chloroquine diphosphate, Sigma Aldrich, C6628) (9 μl of 50 mM for a final volume of 3 ml of blood). Blood was mixed gently by inverting both tubes 3-4 times. Both tubes (+CQ and −CQ) were incubated at 37° C. for 1 hour with rotation (10 revolutions per minute, Thermo Scientific Tube Revolver, 88881002).
After blood was incubated for 1 hour at 37° C., blood tubes were kept on ice to stop enzyme activity and vesicular trafficking. PBMCs were then isolated using standard procedures. To each tube, 3 ml of cold DPBS (Dulbecco's Phosphate-Buffered Saline, GIBCO) was added to 3 ml of blood (1:1) and samples were mixed by gently inverting tubes 3-4 times. Four ml of Lymphoprep (Stemcell Technologies, 07811) was carefully underlayed beneath the blood/DPBS mixture using a 10 mL syringe and a canula (sterile). This was repeated for both blood tubes (containing blood incubated without and with CQ). […]
Total protein was measured using a micro BCA protein assay kit [Thermo Fisher Scientific 23235]. […]

Structure (SMILES): CO[C@H]1C[C@@H]2CC[C@@H](C)[C@@](O)(O2)C(=O)C(=O)N2CCCC[C@H]2C(=O)O[C@H]([C@H](C)C[C@@H]2CC[C@@H](O)[C@H](OC)C2)CC(=O)[C@H](C)/C=C(\C)[C@@H](O)[C@@H](OC)C(=O)[C@H](C)C[C@H](C)/C=C/C=C/C=C/1C [rapamycin]
- autophagic flux (ΔLC3BII = [+CQ]LC3BII−[−CQ]LC3BII): increased
